# Test system: porcine islets
# Assay: Static glucose stimulation (SGS): insulin secretion of cultured porcine islets
# Assay type: cell-based
# Settings: Lidocaine during pancreatic digestion
# Text: Static glucose stimulation (SGS) is used to assess in vitro function of the porcine islets by exposing them to low and high concentrations of glucose and theophylline. Determination of the in vitro insulin secretory capacity is undertaken on both free islets (after 3 days in culture) and after their subsequent encapsulation or confinement.
# Keep the cells 3 days in culture before Static Glucose Stimulation (SGS). SGS involves exposure of the cells to low and high concentration of glucose to check insulin production. Using 0.1 ug/ml concentration add IGF1 and GPE to two plates 24 hours before SGS (day 2 after isolation)
smiles,measurement,value
"CCN(CC)CC(=O)Nc1c(C)cccc1C [Lidocaine, reference compound]",increase of insulin production/g of pancreas,6 fold

# Reference: patent US20040014212A1, “Preparation and xenotransplantation or porcine islets” (priority 2000, published 2004)
